The text below walks through data of patent publication US10996170B2, “Device and method for imaging shortwave infrared fluorescence” (Massachusetts Institute of Technology, priority 2016, dated 2021).

For the series, the system named is brain vasculature. The experiment in a line: Noninvasive brain vasculature imaging through intact skin and skull (NIR vs SWIR detection). It is filed as in vivo, mouse. The following applies: 0.2 mg/kg tail vein.

Consider `CC1(C)C(/C=C/C=C/C=C/C=C2\N(CCCCS(=O)(=O)O)c3ccc4ccccc4c3C2(C)C)=[N+](CCCCS(=O)(=O)[O-])c2ccc3ccccc3c21` [ICG, indocyanine green], for which, where the note is “808 nm excitation, InGaAs camera 1300-1620 nm”, the “image contrast (coefficient of variation: standard deviation of pixel intensity / mean pixel intensity), SWIR image” value was 0.29. Besides, the “image contrast (coefficient of variation: standard deviation of pixel intensity / mean pixel intensity), NIR image” value (808 nm excitation, silicon camera at NIR wavelengths) is reported as 0.20. For the same molecule, for the setting “InGaAs camera 1300-1620 nm”, the “apparent vessel width (full width at half maximum), SWIR image” value worked out at 210 μm. Further, the “SWIR image contrast increase over NIR image” value (SWIR 1300-1620 nm vs NIR) was approximately 50%. Further, under “silicon camera NIR”, the “apparent vessel width (full width at half maximum), NIR image” value came out at 430 μm.
